Reference: PubChem BioAssay AID686943 (Drosophila RNAi Screening Center, 2013)

Aim: 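Knockdowns that increase or decrease active ERK after insulin receptor stimulation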 (primary screen)
Cells: Drosophila S2R+ haemocyte-like cells expressing YFP-tagged ERK (Rolled)
Reagents: long dsRNA against Drosophila genes
Challenge: insulin stimulation versus unstimulated cells; dose and duration not given
Measured: 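Antibody staining for doubly phosphorylated ERK divided by ERK-YFP signal, as plate z-scores, in insulin-treated and untreated cells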
Scale: replicate 1, z-score of dpERK with insulin: higher = more active ERK per ERK-YFP after insulin
The screen tested about 23,000 reagents; below is an unselected part of those that have a named target and a result. 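Extra replicates exist only for a retested subset of genes; insulin dose and duration not given; both raised and lowered dpERK matter.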 Names joined by + are all predicted targets of the reagent. Not all columns of the deposit are shown. No sequences are given here. Not given: the amount of reagent, the time to read-out.

What is on record for CG7326 [DRSC20037]?
replicate 1, z-score of dpERK with insulin: 0.67

How did the screen score Prp8 [DRSC07293]?
replicate 1, z-score of dpERK with insulin: 0.61

What did the screen give for grnd [DRSC02020]?
replicate 1, z-score of dpERK with insulin: -0.59

For CG31207 [DRSC21886], how do the results read?
replicate 1, z-score of dpERK with insulin: -0.16

Which result is listed for cert [DRSC09674]?
replicate 1, z-score of dpERK with insulin: 0.29

With CG2811 [DRSC04318], what does the deposit list?
replicate 1, z-score of dpERK with insulin: -0.05

What did the screen give for schlank [DRSC18102]?
replicate 1, z-score of dpERK with insulin: 1.14

Which result is listed for schlank [DRSC18313]?
replicate 1, z-score of dpERK with insulin: 0.79

For firl [DRSC02428], how do the results read?
replicate 1, z-score of dpERK with insulin: 0.57

How did the screen score CG30447 [DRSC05820]?
replicate 1, z-score of dpERK with insulin: 0.05

With CG13476 [DRSC10019], what does the deposit list?
replicate 1, z-score of dpERK with insulin: 0.65

For CG13850 [DRSC14700], what was measured?
replicate 1, z-score of dpERK with insulin: 0.54

Which result is listed for CG17111 [DRSC15174]?
replicate 1, z-score of dpERK with insulin: 0.01

What did the screen give for CG3164 [DRSC00572]?
replicate 1, z-score of dpERK with insulin: 0.06

With Adgf-E [DRSC05973], what was measured?
replicate 1, z-score of dpERK with insulin: -0.44

How did the screen score CG10657 [DRSC09768]?
replicate 1, z-score of dpERK with insulin: 0.47

What is on record for vib [DRSC17094]?
replicate 1, z-score of dpERK with insulin: 0.23

What did the screen give for CG2100 [DRSC12303]?
replicate 1, z-score of dpERK with insulin: -0.4

For dbr [DRSC00274], how do the results read?
replicate 1, z-score of dpERK with insulin: 0.71

What is on record for Seipin [DRSC18654]?
replicate 1, z-score of dpERK with insulin: 1.98

For orb2 + CG43783 [DRSC10540], what was measured?
replicate 1, z-score of dpERK with insulin: 0.11

What did the screen give for orb2 + CG43783 [DRSC10541]?
replicate 1, z-score of dpERK with insulin: 0.35

For orb2 + CG43783 [DRSC10542], what was measured?
replicate 1, z-score of dpERK with insulin: -0.36

How did the screen score ttv [DRSC07709]?
replicate 1, z-score of dpERK with insulin: 0.24

For CG11180 [DRSC06055], how do the results read?
replicate 1, z-score of dpERK with insulin: 0.46

What did the screen give for ttm50 [DRSC18587]?
replicate 1, z-score of dpERK with insulin: -0.87

What did the screen give for CG7903 [DRSC16338]?
replicate 1, z-score of dpERK with insulin: 0.17

For Obp99a [DRSC15303], how do the results read?
replicate 1, z-score of dpERK with insulin: -0.94

With CG14569 [DRSC11730], how do the results read?
replicate 1, z-score of dpERK with insulin: 0.02

For ND-SGDH [DRSC11102], what was measured?
replicate 1, z-score of dpERK with insulin: -0.39

With Rrp46 [DRSC15537], how do the results read?
replicate 1, z-score of dpERK with insulin: 0.06

Individual results from the entries so far.
Entry for CG3164 [DRSC00572] in “replicate 1, z-score of dpERK with insulin”: 0.06
Result of CG17111 [DRSC15174] under “replicate 1, z-score of dpERK with insulin”: 0.01
vib [DRSC17094], replicate 1, z-score of dpERK with insulin → 0.23
schlank [DRSC18313], replicate 1, z-score of dpERK with insulin → 0.79
For “replicate 1, z-score of dpERK with insulin”, CG2100 [DRSC12303] is entered as -0.4
